Test results from publication PMC11018817, “Reciprocal antagonism of PIN1-APC/C^CDH1 governs mitotic protein stability and cell cycle entry” (Nature Communications, 2024).
No constants are given. Whether binding was seen depends on the method and setting. In cells and extracts the contact can be indirect. Some entries that bind do so weakly or less than the wild type.

The chains behind the UniProt entries cited, without tags or fusion partners.
UniProt Q9QUR7: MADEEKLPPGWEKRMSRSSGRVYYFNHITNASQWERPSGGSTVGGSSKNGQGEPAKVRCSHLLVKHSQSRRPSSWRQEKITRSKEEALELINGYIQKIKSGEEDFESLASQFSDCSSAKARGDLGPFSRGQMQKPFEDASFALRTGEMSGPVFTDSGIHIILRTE
UniProt Q9R1K5: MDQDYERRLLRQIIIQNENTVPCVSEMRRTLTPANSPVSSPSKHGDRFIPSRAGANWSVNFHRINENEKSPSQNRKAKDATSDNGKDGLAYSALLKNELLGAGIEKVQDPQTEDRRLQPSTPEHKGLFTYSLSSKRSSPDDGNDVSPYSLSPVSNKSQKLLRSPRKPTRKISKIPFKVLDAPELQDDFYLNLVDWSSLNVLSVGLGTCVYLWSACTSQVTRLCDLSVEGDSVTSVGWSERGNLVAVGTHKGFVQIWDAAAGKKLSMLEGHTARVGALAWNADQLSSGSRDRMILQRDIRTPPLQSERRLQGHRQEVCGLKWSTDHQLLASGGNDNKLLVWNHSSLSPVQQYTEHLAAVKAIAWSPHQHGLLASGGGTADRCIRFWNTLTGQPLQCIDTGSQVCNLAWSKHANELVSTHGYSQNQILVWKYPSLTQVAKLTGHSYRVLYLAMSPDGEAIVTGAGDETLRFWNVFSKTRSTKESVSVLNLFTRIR

Target: endogenous Pin1 of transgenic mouse cells (mouse (endogenous in transgenic mouse cells)) (UniProt Q9QUR7)
Test: co-IP; endogenous proteins; MDA-MB-231 cells and transgenic mouse cells treated with 10 μM MG132 for 12 h, precipitated with IgG or anti-PIN1 antibodies

binding: binds
Substance: endogenous Cdh1 of transgenic mouse cells (from UniProt Q9R1K5 1-493)
